Laboratory results as given in publication PMC11352367 (Cells, 2024).
These are yes or no findings as the source states them, for the method shown. A result given as binding can be weak or reduced; the word gives no strength. Sequences can lack the tags named with a protein.

Tests used:
[1] = target: Rabbit skeletal muscle-derived α-actinin (rabbit); assay: negative-stain transmission electron microscopy; 1 μM α-actinin with 1 μM SYNPO2La or SYNPO2Lb incubated 3 h at room temperature, negatively stained with 3% uranyl acetate; both purified
[2] = target: Rabbit skeletal muscle-derived α-actinin (rabbit); assay: high-speed atomic force microscopy; actin filaments held on a positively charged lipid bilayer (DPPC:DPTAP 7:3) on mica; α-actinin (140 nM) and/or SYNPO2La (120 or 200 nM) injected into the observation buffer, room temperature; both purified
[3] = target: Rabbit skeletal muscle-derived α-actinin (rabbit); assay: high-speed atomic force microscopy; α-actinin (50 nM) adsorbed on bare mica, SYNPO2La (28 nM) added to the observation buffer (5 mM Tris-HCl pH 8.0, 0.2 mM CaCl2, 0.5 mM DTT, 100 mM KCl, 2 mM MgCl2), room temperature; both purified

binding [1]	binding [2]	binding [3]	Binder
binds	–	–	His-tagged human SYNPO2Lb (synaptopodin 2-like protein, short form) (protein, UniProt Q9H987-2 1-753) METFEPISQEPLSQASYDKAPDPVPELQDSFYAELQRAESLQEKSIKEAKTKCRTIASLLTAAPNPHSKGVLMFKKRRQRAKKYTLVSFGAAAGTGAEEEDGVPPTSESELDEEAFSDARSLTNQSDWDSPYLDMELARAGSRASEGQGSGLGGQLSEVSGRGVQLFEQQRQRADSSTQELARVEPAAMLNGEGLQSPPRAQSAPPEAAVLPPSPLPAPVASPRPFQPGGGAPTPAPSIFNRSARPFTPGLQGQRPTTTSVIFRPLAPKRANDSLGGLSPAPPPFLSSQGPTPLPSFTSGVPSHAPVSGSPSTPRSSGPVTATSSLYIPAPSRPVTPGGAPEPPAPPSAAAMTSTASIFLSAPLRPSARPEAPAPGPGAPEPPSAREQRISVPAARTGILQEARRRGTRKQMFRPGKEETKNSPNPELLSLVQNLDEKPRAGGAESGPEEDALSLGAEACNFMQPVGARSYKTLPHVTPKTPPPMAPKTPPPMTPKTPPPVAPKPPSRGLLDGLVNGAASSAGIPEPPRLQGRGGELFAKRQSRADRYVVEGTPGPGLGPRPRSPSPTPSLPPSWKYSPNIRAPPPIAYNPLLSPFFPQAARTLPKAQSQGPRATPKQGIKALDFMRHQPYQLKTAMFCFDEVPPTPGPIASGSPKTARVQEIRRFSTPAPQPTAEPLAPTVLAPRAATTLDEPIWRTELASAPVPSPAPPPEAPRGLGASPSSCGFQVARPRFSATRTGLQAHVWRPGAGHQ
binds	binds	binds	His-tagged human SYNPO2La (synaptopodin 2-like protein, long form) (protein, UniProt Q9H987 1-977) MGAEEEVLVTLSGGAPWGFRLHGGAEQRKPLQVSKIRRRSQAGRAGLRERDQLLAINGVSCTNLSHASAMSLIDASGNQLVLTVQRLADEGPVQSPSPHELQVLSPLSPLSPEPPGAPVPQPLQPGSLRSPPDSEAYYGETDSDADGPATQEKPRRPRRRGPTRPTPPGAPPDEVYLSDSPAEPAPTIPGPPSQGDSRVSSPSWEDGAALQPPPAEALLLPHGPLRPGPHLIPMVGPVPHPVAEDLTTTYTQKAKQAKLQRAESLQEKSIKEAKTKCRTIASLLTAAPNPHSKGVLMFKKRRQRAKKYTLVSFGAAAGTGAEEEDGVPPTSESELDEEAFSDARSLTNQSDWDSPYLDMELARAGSRASEGQGSGLGGQLSEVSGRGVQLFEQQRQRADSSTQELARVEPAAMLNGEGLQSPPRAQSAPPEAAVLPPSPLPAPVASPRPFQPGGGAPTPAPSIFNRSARPFTPGLQGQRPTTTSVIFRPLAPKRANDSLGGLSPAPPPFLSSQGPTPLPSFTSGVPSHAPVSGSPSTPRSSGPVTATSSLYIPAPSRPVTPGGAPEPPAPPSAAAMTSTASIFLSAPLRPSARPEAPAPGPGAPEPPSAREQRISVPAARTGILQEARRRGTRKQMFRPGKEETKNSPNPELLSLVQNLDEKPRAGGAESGPEEDALSLGAEACNFMQPVGARSYKTLPHVTPKTPPPMAPKTPPPMTPKTPPPVAPKPPSRGLLDGLVNGAASSAGIPEPPRLQGRGGELFAKRQSRADRYVVEGTPGPGLGPRPRSPSPTPSLPPSWKYSPNIRAPPPIAYNPLLSPFFPQAARTLPKAQSQGPRATPKQGIKALDFMRHQPYQLKTAMFCFDEVPPTPGPIASGSPKTARVQEIRRFSTPAPQPTAEPLAPTVLAPRAATTLDEPIWRTELASAPVPSPAPPPEAPRGLGASPSSCGFQVARPRFSATRTGLQAHVWRPGAGHQ
